Results reported in paper PMC7819943, “Rice protein-binding microarrays: a tool to detect cis-acting elements near promoter regions in rice”.
This is one part of the list.

Amino acid sequences for entries named in this document (tags omitted).
UniProt Q0JBA9, entry or part of it: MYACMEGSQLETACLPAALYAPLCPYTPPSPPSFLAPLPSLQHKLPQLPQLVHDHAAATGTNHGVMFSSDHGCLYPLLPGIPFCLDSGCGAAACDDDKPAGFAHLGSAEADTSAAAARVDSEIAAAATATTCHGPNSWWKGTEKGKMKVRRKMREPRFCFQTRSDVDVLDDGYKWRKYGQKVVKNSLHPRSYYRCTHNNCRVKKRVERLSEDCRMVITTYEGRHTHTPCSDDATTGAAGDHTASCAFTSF

These sequences were tested against OsWRKY34 (Oryza sativa, UniProt Q0JBA9 1-250) (assay: protein-binding microarray (RPBM); PBS, 2% BSA, 51.3 ng/ul salmon testes DNA, 50 uM zinc acetate, 200 nM TF, 25 C, 1 h; high values mean tight binding). Details: protein: recombinant; tags: N-terminal polyhistidine and DsRed monomer fusion (pET32a); label: CyDye5-dUTP incorporated in the synthesized complementary strand; 3' TTTTT single-stranded linker to array surface; dsDNA, one strand shown.
Outline: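 Transcription factors were each fused at the N-terminus to a polyhistidine tag plus DsRed and expressed in E. coli BL21-CodonPlus before Ni–NTA purification. Binding to a double-stranded custom Agilent array was carried out with 200 nM protein at 25 °C for 1 h in PBS, 2% BSA, salmon testes DNA and 50 µM zinc acetate. The binding signal is per-feature fluorescence intensity, in arbitrary units, on an Axon 4000B scanner.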

Which binding signal does the source give for “AAGTCTTATCCATCCATTTTTTTTCTCTCGTTTTCCTCTCCGGAGTCACCTAGTGCAG” here?
Its binding signal is 10200 fluorescence intensity (a.u.).

Which binding signal does the source give for “TTTTAAAAAAGTCAACAGCGTCAAACATTTTGGTATGGAGCGGAGTCACCTAGTGCAG” here?
The binding signal was 8400 fluorescence intensity (a.u.).

With “CCTCTCTTTTCTTGATTTCCTCAACTGTCACTACTACCTACGGAGTCACCTAGTGCAG” as the sequence, how does the binding signal read?
The binding signal was 12100 fluorescence intensity (a.u.).

For “CCGCCGCCAACTGCACCCTCGCCGACGTCAACCACCTGGACGGAGTCACCTAGTGCAG”, which binding signal is on record?
Its binding signal is 10200 fluorescence intensity (a.u.).

Which binding signal does the source give for “AACTTCTAACATTTTCGTCACATCGTTCCAATTTCAATCACGGAGTCACCTAGTGCAG” here?
Its binding signal is 9310 fluorescence intensity (a.u.).

For “CGAATGCCGACAACTTGCCCATTAGATCACATCACTACCTCGGAGTCACCTAGTGCAG”, which binding signal is on record?
The binding signal was 8100 fluorescence intensity (a.u.).

How did the binding signal turn out when “AGTACCTGGAATATAAAGTCGGGGTCGAAATTCAGTATCCCGGAGTCACCTAGTGCAG” was run?
The binding signal was 8730 fluorescence intensity (a.u.).

Which binding signal does the source give for “TCGATTGCCGGGGTTTCATATGGTGTGGGTTCAAGTGAAGCGGAGTCACCTAGTGCAG” here?
Its binding signal is 9460 fluorescence intensity (a.u.).

How did the binding signal turn out when “GTTAGCTTCTACATTTCTCGTTTCTGCTGAAAATAGTGGACGGAGTCACCTAGTGCAG” was run?
Its binding signal is 9540 fluorescence intensity (a.u.).

With “TCTCTTTCCTTGCTTGTTTTTTTCTCAACTCGATCCATCTCGGAGTCACCTAGTGCAG” as the sequence, how does the binding signal read?
Its binding signal is 8420 fluorescence intensity (a.u.).

“TTTTCACCATTTCCTTTGCATTGCCTTTTGGTGCCCGTTCCGGAGTCACCTAGTGCAG” was tested. Which binding signal did it give?
Its binding signal is 13700 fluorescence intensity (a.u.).

“CGCTTCACCCGCGCCATTTTCTCTTTTTTTTTAACCCTTCCGGAGTCACCTAGTGCAG” was tested. Which binding signal did it give?
Its binding signal is 8260 fluorescence intensity (a.u.).

“CGCTCTGTACTTACATTCGTTCCTTTTTTATATGATATTCCGGAGTCACCTAGTGCAG” was tested. Which binding signal did it give?
Its binding signal is 9660 fluorescence intensity (a.u.).

For “TCTCTTTCCTGAGCTTGTACCCGTACGTCATTTGTGGAAACGGAGTCACCTAGTGCAG”, which binding signal is on record?
The binding signal was 10800 fluorescence intensity (a.u.).

How did the binding signal turn out when “GTCACGCGCCTCGCCATCCACTTCGTCTCTCTCGTCTCGGCGGAGTCACCTAGTGCAG” was run?
The binding signal was 11700 fluorescence intensity (a.u.).

With “CACATGCTAAATCACCCGGATCAATCCCTACCGTCCATCCCGGAGTCACCTAGTGCAG” as the sequence, how does the binding signal read?
The binding signal was 10000 fluorescence intensity (a.u.).

For “GGAAACGTAACACCCAAGTCATGATCTGTTACATATTACACGGAGTCACCTAGTGCAG”, which binding signal is on record?
The binding signal was 8192 fluorescence intensity (a.u.).

With “TATCACTCGGTTTTTATTTCTTACGTGGCAGGCCTGCAATCGGAGTCACCTAGTGCAG” as the sequence, how does the binding signal read?
Its binding signal is 8730 fluorescence intensity (a.u.).

Which binding signal does the source give for “CCCCAACTCCCACGCCATCTCGCCACCACCAACCGATTCACGGAGTCACCTAGTGCAG” here?
Its binding signal is 8720 fluorescence intensity (a.u.).

How did the binding signal turn out when “TCGGGCATGATCACACAACTATCCTGACCCATAGTTGGCCCGGAGTCACCTAGTGCAG” was run?
Its binding signal is 9490 fluorescence intensity (a.u.).

How did the binding signal turn out when “GGCCACTAGTGCATTTTATTCTTTTTTTCCATGTTGGGCTCGGAGTCACCTAGTGCAG” was run?
The binding signal was 8350 fluorescence intensity (a.u.).

Which binding signal does the source give for “GCCTGCATCAACCATATATGTTGTCCTTCACCAATAAAACCGGAGTCACCTAGTGCAG” here?
The binding signal was 9820 fluorescence intensity (a.u.).

Which binding signal does the source give for “GGCGGCGGAGGAGGAGGAGGAGGAGGAGGAGGCAGCAATGCGGAGTCACCTAGTGCAG” here?
Its binding signal is 10500 fluorescence intensity (a.u.).

How did the binding signal turn out when “ATATCTACTCCCGGTTTCTGCTGGATTCCTTCCTTTTTCTCGGAGTCACCTAGTGCAG” was run?
Its binding signal is 17500 fluorescence intensity (a.u.).

For “GCCGTTCGTTCCTCTTGCTGCTTCCGCCGCATCCATCCTGCGGAGTCACCTAGTGCAG”, which binding signal is on record?
Its binding signal is 10500 fluorescence intensity (a.u.).

Which binding signal does the source give for “GAAGCCCACCCAATTCGATTTTTTGGGCCGCCCCACCTTTCGGAGTCACCTAGTGCAG” here?
Its binding signal is 8790 fluorescence intensity (a.u.).

Which binding signal does the source give for “AGCTTGTCGTCGTCACCGGCCTCGCCGCTGCTTGGTCCATCGGAGTCACCTAGTGCAG” here?
The binding signal was 8040 fluorescence intensity (a.u.).

With “AGTGTTTTTTCTTTTTTGGTGTTTATCGTCCAGCCTTCATCGGAGTCACCTAGTGCAG” as the sequence, how does the binding signal read?
Its binding signal is 8180 fluorescence intensity (a.u.).

Which binding signal does the source give for “CTGGAACCGTTGTTGCATCATCTCACCCACCTGCGTGCTCCGGAGTCACCTAGTGCAG” here?
The binding signal was 9000 fluorescence intensity (a.u.).

How did the binding signal turn out when “CACCGCTCCTCATTCCGTCGTTCGTCGCTCGGTCTGTGCCCGGAGTCACCTAGTGCAG” was run?
The binding signal was 10300 fluorescence intensity (a.u.).

With “TTTTTCCACTATATATTGATAACCTAAGCAAATCCCCATCCGGAGTCACCTAGTGCAG” as the sequence, how does the binding signal read?
Its binding signal is 8220 fluorescence intensity (a.u.).

“GTGTTCACAGCTCAGAGCGCCATCCACCTCACCGTCCGCCCGGAGTCACCTAGTGCAG” was tested. Which binding signal did it give?
The binding signal was 10300 fluorescence intensity (a.u.).

Which binding signal does the source give for “CTAGCCCTTTTGAACGGGTCTTTCTATATTGCATATCCTCCGGAGTCACCTAGTGCAG” here?
Its binding signal is 8600 fluorescence intensity (a.u.).

With “TTCTTGATGATTCGCATTTTCTCGTTTCTTTCGCGTGAACCGGAGTCACCTAGTGCAG” as the sequence, how does the binding signal read?
The binding signal was 8420 fluorescence intensity (a.u.).

Which binding signal does the source give for “CTTAGCTCGGATTTTCTTGATGGAGAATGTCAACCGTTCGCGGAGTCACCTAGTGCAG” here?
The binding signal was 8180 fluorescence intensity (a.u.).

How did the binding signal turn out when “CCTTCTTCAACTGGTGGATGTTCAGCTCCTTCACCGGCGGCGGAGTCACCTAGTGCAG” was run?
Its binding signal is 8280 fluorescence intensity (a.u.).

With “GTCTTCTCTTCTGCAGCTCTGCTTAGCTTCCCCTGATTATCGGAGTCACCTAGTGCAG” as the sequence, how does the binding signal read?
The binding signal was 9150 fluorescence intensity (a.u.).

How did the binding signal turn out when “CTTCATCGGAATCTGACACAATTTTCGACGTATTCTGTGACGGAGTCACCTAGTGCAG” was run?
The binding signal was 9060 fluorescence intensity (a.u.).

Which binding signal does the source give for “AGTACTCCAGTACCACTCTCTGAGCTCACTTGCTTACTTGCGGAGTCACCTAGTGCAG” here?
The binding signal was 8860 fluorescence intensity (a.u.).

With “TACTTCACTTGTACTCGCTTAGTCTCAAAATATATTTATGCGGAGTCACCTAGTGCAG” as the sequence, how does the binding signal read?
Its binding signal is 9060 fluorescence intensity (a.u.).

Which binding signal does the source give for “TCATTTTGACTTTTTTTAGTCAAACTCTTTTAATTTTAATCGGAGTCACCTAGTGCAG” here?
The binding signal was 19600 fluorescence intensity (a.u.).

“GGCCCCAATTCCAACACGCGTGCCCAGCAGCCGCAGATCTCGGAGTCACCTAGTGCAG” was tested. Which binding signal did it give?
Its binding signal is 8930 fluorescence intensity (a.u.).

Which binding signal does the source give for “CTCCATGGGTGCAGGGACCTGGCCATAGCGTTGGCGACTCCGGAGTCACCTAGTGCAG” here?
Its binding signal is 8060 fluorescence intensity (a.u.).

Which binding signal does the source give for “TATCATGATTTGGTATGTTCTAGCTTGTGTTATTTTTATTCGGAGTCACCTAGTGCAG” here?
Its binding signal is 11500 fluorescence intensity (a.u.).

How did the binding signal turn out when “ATCCAAATCTCGCCAAAATCTTATCCCTTTTCAAAATCTCCGGAGTCACCTAGTGCAG” was run?
The binding signal was 8270 fluorescence intensity (a.u.).

“GCCGCCGCACGTGCGCCTCCACCTCCTCTCCATTGCCGCCCGGAGTCACCTAGTGCAG” was tested. Which binding signal did it give?
Its binding signal is 9260 fluorescence intensity (a.u.).

How did the binding signal turn out when “TGGTTGGTTCTTGTGTGTCCCTAAGCGTGAAAAAAATATCCGGAGTCACCTAGTGCAG” was run?
Its binding signal is 12400 fluorescence intensity (a.u.).

“TTTTCTTTCGTTTGCAATTTCAGCTTAGGGCTCTTTAGAACGGAGTCACCTAGTGCAG” was tested. Which binding signal did it give?
The binding signal was 8260 fluorescence intensity (a.u.).

How did the binding signal turn out when “GGCGGCGGCGACGGCGATGGCGCGGGGTTGCTGGAGGGGACGGAGTCACCTAGTGCAG” was run?
The binding signal was 9140 fluorescence intensity (a.u.).

“CAAGCTCGTTCAGCACCGTCGCCACCGCCGTCCCCAACCTCGGAGTCACCTAGTGCAG” was tested. Which binding signal did it give?
The binding signal was 8680 fluorescence intensity (a.u.).

How did the binding signal turn out when “TTCCTTTGAGTCTATCTCTCTCATCAAATTCCTGCGTTTTCGGAGTCACCTAGTGCAG” was run?
The binding signal was 9700 fluorescence intensity (a.u.).

For “TACATGTTTGACCATTCGTCTTATTCAAAAATTTTATGCACGGAGTCACCTAGTGCAG”, which binding signal is on record?
The binding signal was 8160 fluorescence intensity (a.u.).

For “TTGCTCGCGAGTGTGCTCACTGTCACATCACATCGATCATCGGAGTCACCTAGTGCAG”, which binding signal is on record?
The binding signal was 10100 fluorescence intensity (a.u.).

Which binding signal does the source give for “ATTGGTCCATTAGCACGTGATTAATTAAGTATTTGCTATTCGGAGTCACCTAGTGCAG” here?
Its binding signal is 8760 fluorescence intensity (a.u.).
